{"source": "PubChem BioAssay AID1508597 – Cure First | 2020", "aim": "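Knock-downs altering ovarian cancer cell survival with or without PARP inhibitor rucaparib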 (primary screen)", "system": "human ovarian carcinoma lines grown from tumours: OCI-P5x (papillary serous) and OCI-C5x (clear cell)", "reagent": "siRNA pool against human genes, 1.25 pmol siRNA per well", "timing": "72 h or 96 h, depending on the cell culture", "challenge": "rucaparib 20 µM (about IC30) or vehicle, present until read-out", "rucaparib or vehicle": "Vehicle", "cell line": "OCI-C5x (clear cell)", "read-out": "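Luminescent ATP-based viability assay read 72 or 96 h after transfection, depending on culture, given as normalised percent viability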", "scale": "viability, normalised: higher = more viable cells remaining", "rule for the call": "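a well counts as a hit if its normalised viability is under 80 percent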", "meaning of the calls": "active = viability under 80%; inactive = viability 80% or more", "note": "This is a random part of the about 2,100 reagents, in one setting of the screen. 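Calls flag viability under 80% in either arm, not effects specific to rucaparib; the reference for percent is not stated.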 Not given: the 100% reference."}
The opening 2 records as a preview:
{"gene symbol":"SSB (GeneID 6741)","technical replicate":"1","viability, normalised (%)":66.7,"outcome":"active"}
{"gene symbol":"SSB (GeneID 6741)","technical replicate":"2","viability, normalised (%)":47,"outcome":"active"}

Main list, from the start:
{"gene symbol":"SSB (GeneID 6741)","technical replicate":"1","viability, normalised (%)":66.7,"outcome":"active"}
{"gene symbol":"SSB (GeneID 6741)","technical replicate":"2","viability, normalised (%)":47,"outcome":"active"}
{"gene symbol":"SSB (GeneID 6741)","technical replicate":"3","viability, normalised (%)":55.3,"outcome":"active"}
{"gene symbol":"HIPK4 (GeneID 147746)","technical replicate":"1","viability, normalised (%)":77.8,"outcome":"active"}
{"gene symbol":"HIPK4 (GeneID 147746)","technical replicate":"2","viability, normalised (%)":53.6,"outcome":"active"}
{"gene symbol":"HIPK4 (GeneID 147746)","technical replicate":"3","viability, normalised (%)":53.3,"outcome":"active"}
{"gene symbol":"PYGO1 (GeneID 26108)","technical replicate":"1","viability, normalised (%)":49.3,"outcome":"active"}
{"gene symbol":"PYGO1 (GeneID 26108)","technical replicate":"2","viability, normalised (%)":36.5,"outcome":"active"}
{"gene symbol":"PYGO1 (GeneID 26108)","technical replicate":"3","viability, normalised (%)":36.2,"outcome":"active"}
{"gene symbol":"USP1 (GeneID 7398)","technical replicate":"1","viability, normalised (%)":46.8,"outcome":"active"}
{"gene symbol":"USP1 (GeneID 7398)","technical replicate":"2","viability, normalised (%)":40.2,"outcome":"active"}
{"gene symbol":"USP1 (GeneID 7398)","technical replicate":"3","viability, normalised (%)":40.9,"outcome":"active"}
